Reference: doi:10.1101/2025.10.03.680245 (bioRxiv, 2025)
These are yes or no findings as the source states them, for the method shown. For some of these results: Binding seen in cells or lysates may run through a third protein. Some binding calls cover weakened binding; strength is not graded here. For some of these results: Sequences can lack the tags named with a protein.

Chains of the proteins cited; added tags and fusions are not shown.
UniProt P25558: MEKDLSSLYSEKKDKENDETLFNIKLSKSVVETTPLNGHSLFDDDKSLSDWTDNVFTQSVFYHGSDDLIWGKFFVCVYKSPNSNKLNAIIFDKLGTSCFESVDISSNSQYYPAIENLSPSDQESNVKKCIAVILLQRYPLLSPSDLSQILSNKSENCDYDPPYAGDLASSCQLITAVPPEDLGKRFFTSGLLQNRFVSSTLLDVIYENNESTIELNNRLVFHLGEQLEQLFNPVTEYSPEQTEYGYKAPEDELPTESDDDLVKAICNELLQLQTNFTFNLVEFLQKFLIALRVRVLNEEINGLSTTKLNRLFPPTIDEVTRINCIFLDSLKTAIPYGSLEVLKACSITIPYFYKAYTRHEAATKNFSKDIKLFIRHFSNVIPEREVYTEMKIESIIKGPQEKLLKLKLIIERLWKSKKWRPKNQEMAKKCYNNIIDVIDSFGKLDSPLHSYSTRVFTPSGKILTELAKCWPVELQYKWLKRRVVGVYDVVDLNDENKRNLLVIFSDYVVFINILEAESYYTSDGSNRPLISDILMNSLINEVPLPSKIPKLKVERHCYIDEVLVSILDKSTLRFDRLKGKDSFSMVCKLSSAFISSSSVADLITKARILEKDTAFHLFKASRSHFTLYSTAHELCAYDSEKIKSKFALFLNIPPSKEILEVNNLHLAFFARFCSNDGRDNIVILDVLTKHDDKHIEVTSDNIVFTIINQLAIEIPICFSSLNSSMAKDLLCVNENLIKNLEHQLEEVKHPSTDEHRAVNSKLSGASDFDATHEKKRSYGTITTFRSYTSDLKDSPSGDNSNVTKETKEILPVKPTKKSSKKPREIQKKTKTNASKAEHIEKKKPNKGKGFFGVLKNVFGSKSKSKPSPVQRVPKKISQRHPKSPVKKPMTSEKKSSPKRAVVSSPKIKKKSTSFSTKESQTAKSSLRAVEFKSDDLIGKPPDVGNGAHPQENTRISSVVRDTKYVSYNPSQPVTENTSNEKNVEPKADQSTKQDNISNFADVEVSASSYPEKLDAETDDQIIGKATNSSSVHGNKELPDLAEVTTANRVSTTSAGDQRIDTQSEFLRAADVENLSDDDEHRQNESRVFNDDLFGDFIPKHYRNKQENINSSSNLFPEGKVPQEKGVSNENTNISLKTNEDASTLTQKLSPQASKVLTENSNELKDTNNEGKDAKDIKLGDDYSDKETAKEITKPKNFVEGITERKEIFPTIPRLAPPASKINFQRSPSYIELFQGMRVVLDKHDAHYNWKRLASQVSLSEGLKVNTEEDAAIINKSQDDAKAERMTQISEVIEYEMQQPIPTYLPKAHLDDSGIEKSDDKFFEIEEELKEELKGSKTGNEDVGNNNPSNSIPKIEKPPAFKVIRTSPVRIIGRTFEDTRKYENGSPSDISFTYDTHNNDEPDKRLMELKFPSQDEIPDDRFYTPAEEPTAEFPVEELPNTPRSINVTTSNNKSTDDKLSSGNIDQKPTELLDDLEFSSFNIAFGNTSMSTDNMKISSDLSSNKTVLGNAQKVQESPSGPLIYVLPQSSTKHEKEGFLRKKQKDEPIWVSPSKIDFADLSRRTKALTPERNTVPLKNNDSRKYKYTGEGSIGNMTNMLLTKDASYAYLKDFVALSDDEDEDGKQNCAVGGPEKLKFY

Tests used:
[1] = target: T1, β10-Cdc12 (budding yeast (S. cerevisiae)) (UniProt P32468); test: split reporter
T1 sequence: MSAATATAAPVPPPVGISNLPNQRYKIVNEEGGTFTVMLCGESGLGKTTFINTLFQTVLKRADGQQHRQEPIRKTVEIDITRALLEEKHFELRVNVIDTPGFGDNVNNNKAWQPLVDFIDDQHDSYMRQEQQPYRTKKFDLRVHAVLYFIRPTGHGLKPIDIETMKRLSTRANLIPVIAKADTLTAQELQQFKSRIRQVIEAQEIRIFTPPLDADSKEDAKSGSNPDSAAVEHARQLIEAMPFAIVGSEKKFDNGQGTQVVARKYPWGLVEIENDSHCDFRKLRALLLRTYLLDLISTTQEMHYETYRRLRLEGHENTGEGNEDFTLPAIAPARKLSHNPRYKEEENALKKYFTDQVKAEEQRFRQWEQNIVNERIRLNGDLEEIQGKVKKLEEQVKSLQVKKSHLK

[2] = target: T2, β10-Cdc10 (budding yeast (S. cerevisiae)) (UniProt P25342); test: split reporter
T2 sequence: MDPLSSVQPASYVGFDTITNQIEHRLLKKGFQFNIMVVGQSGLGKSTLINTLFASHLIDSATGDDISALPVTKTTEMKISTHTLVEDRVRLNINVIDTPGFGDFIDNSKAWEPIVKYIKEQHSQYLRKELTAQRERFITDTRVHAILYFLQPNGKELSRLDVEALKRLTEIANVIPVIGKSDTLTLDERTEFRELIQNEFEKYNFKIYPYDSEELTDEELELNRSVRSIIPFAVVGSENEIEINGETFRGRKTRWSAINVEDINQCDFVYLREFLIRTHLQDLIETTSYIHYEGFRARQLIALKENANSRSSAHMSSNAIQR

[3] = target: T3, β10-Cdc3 (budding yeast (S. cerevisiae)) (UniProt P32457); test: split reporter
T3 sequence: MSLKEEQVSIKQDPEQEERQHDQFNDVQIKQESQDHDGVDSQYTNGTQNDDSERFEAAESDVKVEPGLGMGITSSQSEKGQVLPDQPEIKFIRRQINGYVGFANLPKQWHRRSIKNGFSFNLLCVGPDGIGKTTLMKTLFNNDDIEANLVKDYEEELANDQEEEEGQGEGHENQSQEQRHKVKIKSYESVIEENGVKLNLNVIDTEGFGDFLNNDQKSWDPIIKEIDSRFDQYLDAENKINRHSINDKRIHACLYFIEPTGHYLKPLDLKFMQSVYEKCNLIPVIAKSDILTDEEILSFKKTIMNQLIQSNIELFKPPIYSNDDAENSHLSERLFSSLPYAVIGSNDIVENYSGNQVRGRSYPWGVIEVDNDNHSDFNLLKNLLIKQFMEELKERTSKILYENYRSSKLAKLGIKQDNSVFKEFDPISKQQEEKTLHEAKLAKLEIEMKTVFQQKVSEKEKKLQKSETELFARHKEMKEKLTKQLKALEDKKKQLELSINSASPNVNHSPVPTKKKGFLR

[4] = target: T4, Bud4-6Gly-3Flag (budding yeast (S. cerevisiae)) (UniProt P47136); test: co-IP
T4 sequence: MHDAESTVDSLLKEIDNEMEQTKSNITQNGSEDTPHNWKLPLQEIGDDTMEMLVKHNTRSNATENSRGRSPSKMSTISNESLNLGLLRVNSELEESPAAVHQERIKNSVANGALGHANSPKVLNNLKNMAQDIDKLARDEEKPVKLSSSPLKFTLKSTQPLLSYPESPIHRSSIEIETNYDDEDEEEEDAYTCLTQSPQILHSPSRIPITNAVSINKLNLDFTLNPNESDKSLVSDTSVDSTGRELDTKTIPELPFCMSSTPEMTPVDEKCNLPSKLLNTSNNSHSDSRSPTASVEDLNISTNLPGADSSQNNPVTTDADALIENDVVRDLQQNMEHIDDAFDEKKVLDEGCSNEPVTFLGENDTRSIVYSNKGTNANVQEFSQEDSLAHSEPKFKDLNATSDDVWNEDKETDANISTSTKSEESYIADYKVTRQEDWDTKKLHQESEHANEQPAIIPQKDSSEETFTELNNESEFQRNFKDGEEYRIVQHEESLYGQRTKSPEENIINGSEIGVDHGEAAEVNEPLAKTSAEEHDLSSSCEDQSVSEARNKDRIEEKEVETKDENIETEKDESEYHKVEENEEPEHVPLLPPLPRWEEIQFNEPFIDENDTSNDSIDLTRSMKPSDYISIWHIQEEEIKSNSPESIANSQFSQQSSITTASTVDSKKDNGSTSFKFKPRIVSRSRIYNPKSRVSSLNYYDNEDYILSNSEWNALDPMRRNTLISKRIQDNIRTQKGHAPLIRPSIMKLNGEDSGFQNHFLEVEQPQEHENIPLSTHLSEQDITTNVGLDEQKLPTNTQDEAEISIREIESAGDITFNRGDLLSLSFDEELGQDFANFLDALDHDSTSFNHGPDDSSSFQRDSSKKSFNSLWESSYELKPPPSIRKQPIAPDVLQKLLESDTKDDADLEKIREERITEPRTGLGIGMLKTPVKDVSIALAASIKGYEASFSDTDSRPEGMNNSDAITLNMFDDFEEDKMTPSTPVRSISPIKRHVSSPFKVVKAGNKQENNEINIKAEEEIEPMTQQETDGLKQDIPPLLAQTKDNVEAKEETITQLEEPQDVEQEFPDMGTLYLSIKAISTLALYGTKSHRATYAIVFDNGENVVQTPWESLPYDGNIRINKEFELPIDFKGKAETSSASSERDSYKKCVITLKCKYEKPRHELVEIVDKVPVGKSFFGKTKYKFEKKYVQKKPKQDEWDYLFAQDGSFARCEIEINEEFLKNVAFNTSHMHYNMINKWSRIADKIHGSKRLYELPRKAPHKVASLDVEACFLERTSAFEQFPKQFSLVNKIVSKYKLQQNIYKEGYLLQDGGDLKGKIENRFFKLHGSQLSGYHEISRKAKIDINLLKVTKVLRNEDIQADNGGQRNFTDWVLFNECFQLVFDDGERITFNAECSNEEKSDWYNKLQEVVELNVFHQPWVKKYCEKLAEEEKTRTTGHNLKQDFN

[5] = target: T5, His6-Cdc3 (budding yeast (S. cerevisiae)) (UniProt P32457); test: tandem affinity co-purification
T5 sequence: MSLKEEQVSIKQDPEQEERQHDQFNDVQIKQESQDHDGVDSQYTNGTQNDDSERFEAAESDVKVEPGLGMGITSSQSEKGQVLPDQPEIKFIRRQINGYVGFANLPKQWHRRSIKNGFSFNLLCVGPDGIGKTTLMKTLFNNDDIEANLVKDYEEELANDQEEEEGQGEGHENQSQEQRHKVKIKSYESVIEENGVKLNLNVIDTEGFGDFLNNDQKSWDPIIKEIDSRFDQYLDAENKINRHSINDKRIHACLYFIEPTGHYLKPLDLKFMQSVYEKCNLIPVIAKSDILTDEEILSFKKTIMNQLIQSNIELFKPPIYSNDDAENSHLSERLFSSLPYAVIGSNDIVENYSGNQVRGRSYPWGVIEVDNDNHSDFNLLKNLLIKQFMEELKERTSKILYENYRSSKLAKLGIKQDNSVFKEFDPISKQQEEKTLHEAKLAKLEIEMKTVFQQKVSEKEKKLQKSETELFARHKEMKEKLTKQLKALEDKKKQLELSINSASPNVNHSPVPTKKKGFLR

## Bud3-linker(3aa)-GFPβ11 (from UniProt P25558 1-1636)
[1]
  binding: no binding
[2]
  binding: binds
[3]
  binding: no binding

B1: Cdc11 (protein, UniProt P32458 1-415)
chain: MSGIIDASSALRKRKHLKRGITFTVMIVGQSGSGRSTFINTLCGQQVVDTSTTILLPTDTSTEIDLQLREETVELEDDEGVKIQLNIIDTPGFGDSLDNSPSFEIISDYIRHQYDEILLEESRVRRNPRFKDGRVHCCLYLINPTGHGLKEIDVEFIRQLGSLVNIIPVISKSDSLTRDELKLNKKLIMEDIDRWNLPIYNFPFDEDEISDEDYETNMYLRTLLPFAIIGSNEVYEMGGDVGTIRGRKYPWGILDVEDSSISDFVILRNALLISHLHDLKNYTHEILYERYRTEALSGESVAAESIRPNLTKLNGSSSSSTTTRRNTNPFKQSNNINNDVLNPASDMHGQSTGENNETYMTREEQIRLEEERLKAFEERVQQELLLKRQELLQREKELREIEARLEKEAKIKQEE
[4]
  binding: binds

B2: Cdc10 (protein, UniProt P25342 1-322)
chain: MDPLSSVQPASYVGFDTITNQIEHRLLKKGFQFNIMVVGQSGLGKSTLINTLFASHLIDSATGDDISALPVTKTTEMKISTHTLVEDRVRLNINVIDTPGFGDFIDNSKAWEPIVKYIKEQHSQYLRKELTAQRERFITDTRVHAILYFLQPNGKELSRLDVEALKRLTEIANVIPVIGKSDTLTLDERTEFRELIQNEFEKYNFKIYPYDSEELTDEELELNRSVRSIIPFAVVGSENEIEINGETFRGRKTRWSAINVEDINQCDFVYLREFLIRTHLQDLIETTSYIHYEGFRARQLIALKENANSRSSAHMSSNAIQR
[5]
  binding: binds

B3: Cdc11 (recombinant) (protein, UniProt P32458 1-415)
chain: MSGIIDASSALRKRKHLKRGITFTVMIVGQSGSGRSTFINTLCGQQVVDTSTTILLPTDTSTEIDLQLREETVELEDDEGVKIQLNIIDTPGFGDSLDNSPSFEIISDYIRHQYDEILLEESRVRRNPRFKDGRVHCCLYLINPTGHGLKEIDVEFIRQLGSLVNIIPVISKSDSLTRDELKLNKKLIMEDIDRWNLPIYNFPFDEDEISDEDYETNMYLRTLLPFAIIGSNEVYEMGGDVGTIRGRKYPWGILDVEDSSISDFVILRNALLISHLHDLKNYTHEILYERYRTEALSGESVAAESIRPNLTKLNGSSSSSTTTRRNTNPFKQSNNINNDVLNPASDMHGQSTGENNETYMTREEQIRLEEERLKAFEERVQQELLLKRQELLQREKELREIEARLEKEAKIKQEE
[5]
  binding: binds

B4: Cdc12 (recombinant) (protein, UniProt P32468 1-407)
chain: MSAATATAAPVPPPVGISNLPNQRYKIVNEEGGTFTVMLCGESGLGKTTFINTLFQTVLKRADGQQHRQEPIRKTVEIDITRALLEEKHFELRVNVIDTPGFGDNVNNNKAWQPLVDFIDDQHDSYMRQEQQPYRTKKFDLRVHAVLYFIRPTGHGLKPIDIETMKRLSTRANLIPVIAKADTLTAQELQQFKSRIRQVIEAQEIRIFTPPLDADSKEDAKSGSNPDSAAVEHARQLIEAMPFAIVGSEKKFDNGQGTQVVARKYPWGLVEIENDSHCDFRKLRALLLRTYLLDLISTTQEMHYETYRRLRLEGHENTGEGNEDFTLPAIAPARKLSHNPRYKEEENALKKYFTDQVKAEEQRFRQWEQNIVNERIRLNGDLEEIQGKVKKLEEQVKSLQVKKSHLK
[5]
  binding: binds
